Measurements as given in paper doi:10.1101/2025.04.11.648320 (bioRxiv, 2025).

Amino acid sequences for entries named in this document (tags omitted). A change or cut given only in a name is not applied to a line headed by its entry.
UniProt Q9SRH6: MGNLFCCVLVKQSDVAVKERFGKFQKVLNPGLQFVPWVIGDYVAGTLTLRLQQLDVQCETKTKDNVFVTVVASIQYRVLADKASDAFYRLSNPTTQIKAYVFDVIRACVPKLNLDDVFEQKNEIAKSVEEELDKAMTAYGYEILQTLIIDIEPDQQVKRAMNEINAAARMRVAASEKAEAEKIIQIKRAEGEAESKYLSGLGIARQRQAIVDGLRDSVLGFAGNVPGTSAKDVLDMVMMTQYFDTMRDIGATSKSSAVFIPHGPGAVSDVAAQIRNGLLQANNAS

Target: T1, BIR2, endogenous in Arabidopsis plants (Arabidopsis thaliana (endogenous in Arabidopsis plants)) (UniProt Q9LSI9)
T1 sequence: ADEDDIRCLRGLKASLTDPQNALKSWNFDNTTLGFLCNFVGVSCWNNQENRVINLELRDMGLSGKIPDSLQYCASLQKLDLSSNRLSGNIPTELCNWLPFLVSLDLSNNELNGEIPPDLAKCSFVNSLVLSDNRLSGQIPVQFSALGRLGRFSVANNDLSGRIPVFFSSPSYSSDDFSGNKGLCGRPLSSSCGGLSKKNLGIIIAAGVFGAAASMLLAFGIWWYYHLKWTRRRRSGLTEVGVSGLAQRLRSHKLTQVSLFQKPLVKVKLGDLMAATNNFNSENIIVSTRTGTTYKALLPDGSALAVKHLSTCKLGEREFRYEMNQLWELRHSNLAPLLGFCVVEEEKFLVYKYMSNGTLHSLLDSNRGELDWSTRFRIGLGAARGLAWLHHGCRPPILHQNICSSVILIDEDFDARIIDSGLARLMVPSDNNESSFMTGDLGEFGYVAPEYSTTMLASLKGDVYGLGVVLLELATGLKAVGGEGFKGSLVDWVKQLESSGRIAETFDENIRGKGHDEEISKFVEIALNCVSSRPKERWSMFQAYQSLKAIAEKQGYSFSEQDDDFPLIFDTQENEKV
Assay: affinity purification with mass spectrometry

binding: binds
Substance: HIR2, endogenous in Arabidopsis plants (from UniProt Q9SRH6)

These are yes or no findings as the source states them, for the method shown. Binding seen in cells or lysates may run through a third protein. A yes stands for co-enrichment or nearness to the bait. Other partners may have been found.
